Legend:
[1] = tested on: WT and dopamine transporter knockout (DAT-KO) mice; assay: Prepulse inhibition in WT and DAT-KO mice; conditions: for null activity in DAT-KO mice: compared to vehicle group; for null activity in WT mice: relative to the vehicle control
C57BL/6J mice = assay: Prepulse inhibition, PCP-disrupted; type: in vivo

CN1CCN(C2=Nc3cc(Cl)ccc3Nc3ccccc32)CC1 [clozapine]
null activity in DAT-KO mice ([1]; 2 mg/kg clozapine): significantly augmented | startle responses ([1]; 2 mg/kg clozapine, regardless of genotype): higher startle responses than all other groups | null activity in WT mice ([1]; 2 mg/kg clozapine): significantly enhanced

COc1cc2c3c(c1OC)-c1ccccc1C[C@H]3N(C)CC2 [nuciferine]
null activity in WT mice ([1]; 5 mg/kg nuciferine): significantly enhanced | null activity in DAT-KO mice ([1]; all doses of nuciferine): significantly augmented | startle responses (C57BL/6J mice; 5 mg/kg i.p.): lower than those of the vehicle-treated groups | startle responses (C57BL/6J mice; 10 mg/kg i.p.): lower than those of the vehicle-treated groups

From PMC4786259 (PLoS ONE, 2016)
